Data reported in paper doi:10.1101/2024.04.10.588880.
These are yes or no findings as the source states them, for the method shown. For part of these data: Binding can be weak; no strength is given. Where a sequence is shown, tags or fusion partners need not be part of it. For part of these data: Binding seen in cells or lysates may run through a third protein. One block for each molecule: values may come before it.

By UniProt entry, the sequences of proteins in these tests, tags left out. Where a name states a change or a piece, a line headed by the entry shows the natural chain unless it says otherwise.
UniProt Q6XZF7: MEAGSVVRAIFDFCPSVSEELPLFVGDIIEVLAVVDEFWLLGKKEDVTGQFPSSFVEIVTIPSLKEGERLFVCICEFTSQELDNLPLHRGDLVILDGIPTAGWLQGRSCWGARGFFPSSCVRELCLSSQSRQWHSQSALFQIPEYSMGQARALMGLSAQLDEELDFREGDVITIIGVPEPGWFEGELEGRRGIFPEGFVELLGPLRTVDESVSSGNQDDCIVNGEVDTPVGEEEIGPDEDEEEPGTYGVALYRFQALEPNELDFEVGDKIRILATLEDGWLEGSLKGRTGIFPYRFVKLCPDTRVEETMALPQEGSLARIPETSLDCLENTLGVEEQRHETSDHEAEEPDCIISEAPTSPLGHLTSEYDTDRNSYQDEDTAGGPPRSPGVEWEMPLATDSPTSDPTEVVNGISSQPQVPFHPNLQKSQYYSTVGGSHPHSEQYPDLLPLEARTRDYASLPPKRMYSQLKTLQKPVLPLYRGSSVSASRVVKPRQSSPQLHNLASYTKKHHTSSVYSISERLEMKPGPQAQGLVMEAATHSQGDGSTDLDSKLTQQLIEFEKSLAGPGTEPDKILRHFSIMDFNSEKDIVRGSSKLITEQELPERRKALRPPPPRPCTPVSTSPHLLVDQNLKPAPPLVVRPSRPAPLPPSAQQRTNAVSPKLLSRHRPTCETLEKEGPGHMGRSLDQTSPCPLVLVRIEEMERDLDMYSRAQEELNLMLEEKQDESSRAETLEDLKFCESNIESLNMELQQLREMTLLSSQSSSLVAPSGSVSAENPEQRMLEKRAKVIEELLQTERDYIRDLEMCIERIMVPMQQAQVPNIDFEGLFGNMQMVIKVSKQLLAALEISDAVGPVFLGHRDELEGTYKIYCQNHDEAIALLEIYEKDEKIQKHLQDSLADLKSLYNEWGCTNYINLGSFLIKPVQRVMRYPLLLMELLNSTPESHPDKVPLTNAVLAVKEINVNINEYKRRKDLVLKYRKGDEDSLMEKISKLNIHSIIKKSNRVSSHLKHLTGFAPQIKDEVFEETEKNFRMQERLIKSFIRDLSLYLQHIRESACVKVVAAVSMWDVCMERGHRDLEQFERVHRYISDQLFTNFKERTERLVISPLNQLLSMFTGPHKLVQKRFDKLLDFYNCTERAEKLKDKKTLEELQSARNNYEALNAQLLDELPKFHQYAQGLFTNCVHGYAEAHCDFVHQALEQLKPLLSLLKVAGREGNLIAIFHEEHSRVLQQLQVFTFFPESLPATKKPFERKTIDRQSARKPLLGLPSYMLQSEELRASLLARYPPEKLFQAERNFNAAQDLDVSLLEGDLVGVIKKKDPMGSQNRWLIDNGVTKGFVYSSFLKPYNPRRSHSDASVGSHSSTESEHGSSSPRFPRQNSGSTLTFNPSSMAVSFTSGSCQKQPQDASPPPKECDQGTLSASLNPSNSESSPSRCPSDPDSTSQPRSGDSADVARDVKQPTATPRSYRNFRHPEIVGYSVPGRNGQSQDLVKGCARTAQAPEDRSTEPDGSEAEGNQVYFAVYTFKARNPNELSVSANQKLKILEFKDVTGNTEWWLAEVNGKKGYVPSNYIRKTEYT

Columns and labels:
[1] = target: T1, GST-tagged wild-type (WT) Dynamin 2 (rat) (UniProt P39052); experiment: pull-down
T1 sequence: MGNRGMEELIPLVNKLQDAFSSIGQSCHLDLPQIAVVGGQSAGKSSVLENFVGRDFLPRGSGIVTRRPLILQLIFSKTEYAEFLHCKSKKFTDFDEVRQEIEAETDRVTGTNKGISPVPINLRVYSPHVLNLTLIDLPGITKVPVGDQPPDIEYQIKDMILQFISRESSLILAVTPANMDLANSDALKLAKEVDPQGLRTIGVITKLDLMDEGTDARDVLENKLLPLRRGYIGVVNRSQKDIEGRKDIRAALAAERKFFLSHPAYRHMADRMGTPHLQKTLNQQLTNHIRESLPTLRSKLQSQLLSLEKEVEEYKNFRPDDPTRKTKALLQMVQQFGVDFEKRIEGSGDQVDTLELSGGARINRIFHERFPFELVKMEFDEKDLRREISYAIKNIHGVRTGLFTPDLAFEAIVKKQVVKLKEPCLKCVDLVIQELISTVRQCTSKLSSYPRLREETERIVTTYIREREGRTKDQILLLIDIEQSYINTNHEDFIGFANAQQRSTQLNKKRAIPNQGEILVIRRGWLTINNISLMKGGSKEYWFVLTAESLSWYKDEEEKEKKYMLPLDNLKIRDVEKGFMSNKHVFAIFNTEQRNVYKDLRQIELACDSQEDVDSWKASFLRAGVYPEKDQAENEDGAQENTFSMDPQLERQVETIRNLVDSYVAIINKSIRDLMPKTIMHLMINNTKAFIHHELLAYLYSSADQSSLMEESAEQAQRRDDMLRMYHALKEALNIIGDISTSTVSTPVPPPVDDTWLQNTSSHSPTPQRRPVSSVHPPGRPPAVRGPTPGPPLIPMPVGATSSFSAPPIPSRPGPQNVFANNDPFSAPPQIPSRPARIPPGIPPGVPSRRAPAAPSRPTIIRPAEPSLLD

[2] = target: T1, GST-tagged wild-type (WT) Dynamin 2 (rat); experiment: condition: approximately 24 nM SH36 with 30 nM GST-Dynamin 2.WT
[3] = target: GST-tagged fourth SH3 domain of Tuba (human) (UniProt Q6XZF7); experiment: pull-down
[4] = target: GST-tagged first SH3 domain of Tuba (human) (UniProt Q6XZF7); experiment: pull-down
[5] = target: GST fused to the SH31-4 region of Tuba (human) (UniProt Q6XZF7); experiment: pull-down

binding [1]: binds
Molecule: SH31-4 region of Tuba with its GST tag removed (from UniProt Q6XZF7) (domain or fragment)

binding [1]: no binding
Molecule: Tuba isoform 2 (endogenous, Caco-2 BBE1 cells) (human (endogenous in Caco-2 BBE1))

More lines, now with the values behind:

Molecule: SH36 domain of Tuba with its GST tag removed (from UniProt Q6XZF7) (domain or fragment)
binding [2]: no binding

B1: wild-type (WT) Dynamin 2 fused to enhanced green fluorescent protein (EGFP) (protein, UniProt P39052 1-870)
chain: MGNRGMEELIPLVNKLQDAFSSIGQSCHLDLPQIAVVGGQSAGKSSVLENFVGRDFLPRGSGIVTRRPLILQLIFSKTEYAEFLHCKSKKFTDFDEVRQEIEAETDRVTGTNKGISPVPINLRVYSPHVLNLTLIDLPGITKVPVGDQPPDIEYQIKDMILQFISRESSLILAVTPANMDLANSDALKLAKEVDPQGLRTIGVITKLDLMDEGTDARDVLENKLLPLRRGYIGVVNRSQKDIEGRKDIRAALAAERKFFLSHPAYRHMADRMGTPHLQKTLNQQLTNHIRESLPTLRSKLQSQLLSLEKEVEEYKNFRPDDPTRKTKALLQMVQQFGVDFEKRIEGSGDQVDTLELSGGARINRIFHERFPFELVKMEFDEKDLRREISYAIKNIHGVRTGLFTPDLAFEAIVKKQVVKLKEPCLKCVDLVIQELISTVRQCTSKLSSYPRLREETERIVTTYIREREGRTKDQILLLIDIEQSYINTNHEDFIGFANAQQRSTQLNKKRAIPNQGEILVIRRGWLTINNISLMKGGSKEYWFVLTAESLSWYKDEEEKEKKYMLPLDNLKIRDVEKGFMSNKHVFAIFNTEQRNVYKDLRQIELACDSQEDVDSWKASFLRAGVYPEKDQAENEDGAQENTFSMDPQLERQVETIRNLVDSYVAIINKSIRDLMPKTIMHLMINNTKAFIHHELLAYLYSSADQSSLMEESAEQAQRRDDMLRMYHALKEALNIIGDISTSTVSTPVPPPVDDTWLQNTSSHSPTPQRRPVSSVHPPGRPPAVRGPTPGPPLIPMPVGATSSFSAPPIPSRPGPQNVFANNDPFSAPPQIPSRPARIPPGIPPGVPSRRAPAAPSRPTIIRPAEPSLLD
binding [3]: binds
binding [4]: binds
binding [5]: binds
